From publication PMC12089419 come the findings set out here.

The chains behind the UniProt entries cited, without tags or fusion partners.
UniProt Q93009: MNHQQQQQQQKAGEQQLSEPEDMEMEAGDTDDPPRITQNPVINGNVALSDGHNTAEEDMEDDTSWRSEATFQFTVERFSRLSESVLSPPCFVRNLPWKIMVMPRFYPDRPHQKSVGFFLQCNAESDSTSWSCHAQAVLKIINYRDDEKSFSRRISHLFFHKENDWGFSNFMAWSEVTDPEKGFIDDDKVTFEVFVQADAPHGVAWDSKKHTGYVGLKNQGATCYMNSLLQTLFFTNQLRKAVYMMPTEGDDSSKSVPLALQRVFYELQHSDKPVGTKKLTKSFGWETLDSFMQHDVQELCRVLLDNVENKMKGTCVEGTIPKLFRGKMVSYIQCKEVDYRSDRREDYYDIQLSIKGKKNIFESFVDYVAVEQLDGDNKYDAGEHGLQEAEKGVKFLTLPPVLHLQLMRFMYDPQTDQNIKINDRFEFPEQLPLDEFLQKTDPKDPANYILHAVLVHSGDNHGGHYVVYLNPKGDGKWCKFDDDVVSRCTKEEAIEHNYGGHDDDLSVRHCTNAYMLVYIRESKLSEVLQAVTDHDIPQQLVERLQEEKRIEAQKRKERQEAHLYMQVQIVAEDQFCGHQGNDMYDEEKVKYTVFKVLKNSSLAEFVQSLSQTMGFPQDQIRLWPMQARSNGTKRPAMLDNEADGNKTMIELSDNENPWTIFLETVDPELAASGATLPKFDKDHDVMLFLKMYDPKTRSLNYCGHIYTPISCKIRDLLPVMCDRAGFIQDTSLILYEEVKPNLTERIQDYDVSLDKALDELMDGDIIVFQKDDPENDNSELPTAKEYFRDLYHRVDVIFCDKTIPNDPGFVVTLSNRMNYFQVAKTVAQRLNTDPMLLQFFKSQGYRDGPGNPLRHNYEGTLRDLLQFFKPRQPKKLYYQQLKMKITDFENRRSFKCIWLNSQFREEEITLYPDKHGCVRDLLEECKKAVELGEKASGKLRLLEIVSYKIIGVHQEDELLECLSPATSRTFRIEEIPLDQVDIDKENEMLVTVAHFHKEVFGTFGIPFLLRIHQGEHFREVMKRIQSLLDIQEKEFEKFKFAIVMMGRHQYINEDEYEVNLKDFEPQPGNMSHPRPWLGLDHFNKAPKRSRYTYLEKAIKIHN

The target in this test is T1, Myc-DACH1-FL (human) (UniProt Q9UI36).
T1 sequence: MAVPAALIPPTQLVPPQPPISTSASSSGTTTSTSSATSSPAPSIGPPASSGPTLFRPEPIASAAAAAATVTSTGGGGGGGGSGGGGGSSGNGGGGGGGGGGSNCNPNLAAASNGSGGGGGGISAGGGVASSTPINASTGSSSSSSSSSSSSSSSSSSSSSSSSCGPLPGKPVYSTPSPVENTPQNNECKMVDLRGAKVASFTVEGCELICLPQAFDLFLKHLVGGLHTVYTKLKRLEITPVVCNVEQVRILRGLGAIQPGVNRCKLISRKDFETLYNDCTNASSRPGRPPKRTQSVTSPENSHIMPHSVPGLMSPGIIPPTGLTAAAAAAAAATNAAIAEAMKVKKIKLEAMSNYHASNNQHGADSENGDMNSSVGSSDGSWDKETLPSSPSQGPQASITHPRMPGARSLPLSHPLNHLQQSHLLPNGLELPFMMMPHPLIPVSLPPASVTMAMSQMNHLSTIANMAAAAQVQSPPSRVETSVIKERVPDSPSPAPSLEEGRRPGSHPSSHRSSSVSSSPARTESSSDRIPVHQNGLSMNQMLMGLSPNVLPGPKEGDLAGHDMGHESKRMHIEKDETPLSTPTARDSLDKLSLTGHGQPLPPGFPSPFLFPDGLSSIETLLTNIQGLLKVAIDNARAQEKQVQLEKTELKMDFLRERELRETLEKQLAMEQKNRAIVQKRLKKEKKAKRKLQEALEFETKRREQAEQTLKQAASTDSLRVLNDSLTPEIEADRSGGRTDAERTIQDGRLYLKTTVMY
Briefly: affinity purification with mass spectrometry; Myc-DACH1 stably expressed in HCT8 cells; whole cell extracts purified with anti-Myc affinity beads, then mass spectrometry.

No constants are given. Whether binding was seen depends on the method and setting. Binding seen in cells or lysates may run through a third protein. A yes stands for co-enrichment or nearness to the bait. Other partners may have been found. Tags and fused reporters may be left off the sequences shown.

With “endogenous USP7 (from UniProt Q93009 1-1102) (enzyme)”, the binding entry was “binds”.
